A short description of the experiment: qHTS Assay to Find Inhibitors of Chronic Active B-Cell Receptor Signaling. Particulars: ABC-DLBCL IkBa-CBG/CBR reporter, luminescence ratio (green luciferase fused to IkBa over red control in TMD8 lymphoma cells), 4 h. A digest of the protocol:
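TMD8 ABC-DLBCL cells carrying doxycycline-inducible green luciferase fused to IkappaBalpha plus unfused red luciferase were exposed to compounds (up to 46 uM) for 4 hrs at 37C. Activity came from the overlap-corrected green/red luminescence ratio.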

[1] abbreviates: measured here: CBR red luminescence, cell number.
Where [2] appears, read: measured here: IkBa-CBG green luminescence.

SMILES strings stand for the structures. Some of the results follow. Further columns of the screen follow, without active or inactive calls. Compounds called inactive in the main read-out are mostly missing here. Potencies come from curve fits of mixed quality, noted in brackets.

By AC50 is commonly meant the concentration giving half of the maximal activity seen.

Take `COc1ccc(-c2nc3ccccc3c(=O)n2-c2c(C)n(C)n(-c3ccccc3)c2=O)cc1`: the AC50 under setting [1] is 35.5 µM [rising, single point].
For `CCc1ccc[n+](-c2[nH]c(=O)sc2/C=N/N=C(\N)[O-])c1`, the AC50 under setting [1] was 35.5 µM [rising, single point].
`O=C(Nc1ccc2c(c1)OCO2)C1CCCCC1`: the AC50 under setting [1] was 12.6 µM [falling, single point].
In the case of `COc1ccc(-c2nnc(CSc3nc4ccccc4c(=O)n3CC(C)C)o2)cc1OC`, under setting [1], the AC50 was 25.9 µM [falling, single point].
On the same count and under the same terms, then `O=C(N/N=C/c1cccc(OCc2ccccc2)c1)c1cccs1`, with 2 µM [falling, partial curve, poor fit].
On to `CC(C)Oc1ccccc1/C=N/Nc1ccccc1[N+](=O)[O-]`, for which, under setting [1], the concentration at half-maximal activity (AC50) is 2.31 µM [rising, full curve].
In the case of `CC(C)NC(=O)N(C)C[C@@H]1Oc2ccc(NC(=O)CCN3CCOCC3)cc2CC(=O)N([C@@H](C)CO)C[C@@H]1C`, the AC50 under setting [1] is 29.1 µM [rising, single point].
For `Cc1ccc(C)c(NS(=O)(=O)c2cc(C(=O)NCCC3=CCCCC3)ccc2C)c1`, the AC50 under setting [1] is 25.9 µM [falling, single point].
Still for that read-out and setting: next, `CC(=O)c1ccc(NC(=O)CO/N=C(\C)c2cccs2)cc1`: 18.4 µM [rising, partial curve]; `O=C(CSc1nc2ccccc2s1)c1ccc(O)cc1O`: 5.62 µM [falling, partial curve, poor fit]; `Nc1ccc(-c2ccc(C(=O)O)s2)cn1`: 3.55 µM [falling, full curve].
Consider `COc1cccc(N2CCN(C(=O)C3CCC(=O)N(C4CCCCCC4)C3)CC2)c1` (configuration not stated), for which the AC50 under setting [1] is 22.4 µM [falling, single point].
Take `COC(=O)c1cc(Cl)c(NC(=O)/C=C/c2ccc(Cl)cc2)cc1OC`: the AC50 under setting [1] is 0.13 µM [rising, full curve, poor fit].
Still for that read-out and setting: next, `Cc1ccc(C)c(C(C)NC(=O)c2ccc(Br)o2)c1` (configuration not stated): 12.6 µM [rising, single point]; `O=C(Nc1ccc(C2=NCCN2)cc1)c1ccc(C(=O)Nc2ccc(C3=NCCN3)cc2)c(Cl)c1`: 15.8 µM [rising, single point].
Consider `CN(CC(=O)Nc1ccc(F)cc1[N+](=O)[O-])Cc1ccccc1`, for which, under setting [1], the concentration at half-maximal activity (AC50) is 5.01 µM [rising, full curve].
Still for that read-out and setting: then `C=CC[C@@H](Cc1ccc(F)cc1)C(=O)OC[C@H]1CCCN1C(=O)[C@@H](CC=C)CC(=O)N[C@@H](CO)Cc1ccccc1`, with 32.6 µM [falling, single point]; and `CCCC(=O)N1CCN(c2nnc(-c3ccc(C)cc3)c3ccccc23)CC1`, with 35.5 µM [falling, partial curve, poor fit]; and `O=C1CSC(c2cccc(F)c2)N1c1ccccc1F` (configuration not stated), with 3.66 µM [falling, single point].
`CCOC(=O)C1CCN(C(=S)Nc2cc(OC)c(OC)cc2C(=O)OC)CC1`: the AC50 under setting [1] is 0.00411 µM [rising, full curve, poor fit].
In the case of `CS(=O)(=O)c1ccc2nc(NC(=O)c3cccc(NS(=O)(=O)c4ccc(F)c(F)c4)c3)sc2c1`, the half-maximal activity concentration (AC50) under setting [1] is 29.1 µM [falling, single point] and the AC50 under setting [2] was 23.1 µM [rising, partial curve, poor fit].
Turning to `CCOC(=O)c1c(C)n(-c2ccc(C)cc2)c2ccc(O)c(CN(C)C)c12`, the AC50 under setting [1] was 25.1 µM [falling, single point].
Consider `COC(=O)CCCCCN1C(=O)NC(c2ccccc2)C(C(=O)OCc2ccccc2)=C1C` (configuration not stated), for which the AC50 under setting [1] was 23.1 µM [falling, single point].
Same read-out and setting: then `CCOC(=O)Cn1c(S(=O)(=O)Cc2ccccc2Cl)nc(-c2ccccc2)c1-c1ccccc1`, with 9.2 µM [falling, partial curve]; and `C=CCNC(=O)NC(=O)COC(=O)c1cccnc1SC`, with 14.6 µM [rising, partial curve, poor fit].
As to `COc1cccc2cc(-c3nc4ccc(C)cc4[nH]3)c(=O)oc12`, the AC50 under setting [1] was 2.82 µM [falling, partial curve].
Take `O=C(NC(=S)N1CCCCC1)c1cccs1`: the AC50 under setting [1] was 25.9 µM [rising, single point].
Turning to `Cc1c(C#N)c(N)c(C(=O)c2ccccc2)n1Cc1ccccc1`, the AC50 under setting [1] was 29.1 µM [rising, single point].
With `O=C(N/N=C\C=C\c1ccco1)c1cc(-c2ccc3ccccc3c2)n[nH]1`, under setting [1], the concentration at half-maximal activity (AC50) was 0.517 µM [rising, full curve, poor fit].
Take `CC(C)CNC(=S)NC(=O)c1csc([N+](=O)[O-])c1`: the half-maximal activity concentration (AC50) under setting [1] was 35.5 µM [rising, single point].
For the compound `COc1ccc(-c2cc(C(=O)N(C)Cc3cccc(OC)c3OC)c3ccccc3n2)cc1OC`, the AC50 under setting [2] was 0.631 µM [falling, partial curve, poor fit].
For the compound `CCCn1c(-c2ccc(OC)cc2)nc2ccccc21`, under setting [1], the AC50 is 10 µM [falling, partial curve].
As for `CC(C)(O)C(=O)N=Nc1c(O)[nH]c2ccccc12`, the AC50 under setting [1] was 35.5 µM [falling, single point].
On to `Clc1cccc(Cl)c1C1=NOC(c2nnc(-c3ccccc3)o2)C1` (configuration not stated), for which the AC50 under setting [1] is 5.62 µM [rising, single point].
Take `CS/C(=C\[N+](=O)[O-])Nc1ccc(Cl)cc1`: the half-maximal activity concentration (AC50) under setting [1] was 4.61 µM [falling, full curve, poor fit].
Consider `Cn1c(SCC(=O)Nc2ccccc2)nc2c([nH]c3ccccc32)c1=O`, for which the AC50 under setting [1] was 1.12 µM [falling, partial curve, poor fit].
For `Cc1[nH]c(=O)[nH]c(=O)c1NC(=O)c1sc2nc3c(C)cccc3cc2c1N`, the half-maximal activity concentration (AC50) was 14.6 µM [falling, partial curve, poor fit] under setting [1] and 0.92 µM [rising, full curve, poor fit] under setting [2].
Take `CCOc1cc(/C=N/NC(=O)c2cccs2)cc([N+](=O)[O-])c1O`: under setting [1], the AC50 is 3.55 µM [falling, full curve, poor fit].
With `c1ccc(-c2cc3cc4c(cc3cn2)OCO4)cc1`, the AC50 under setting [1] is 29.1 µM [falling, single point].
`COc1cccc(N/C=C/C(=O)c2ccc(Cl)cc2)c1`: under setting [1], the AC50 was 16.4 µM [falling, partial curve].

These data come from PubChem BioAssay AID493014 (National Center for Advancing Translational Sciences (NCATS), 2011).
